# In patent US12060400B2, “Peptides for use in immunotherapy against cancers” (Immatics Biotechnologies GmbH, priority 2018, dated 2024):
# Test system: HLA molecules of primary tumor and normal tissue samples (cancer entities)
# Assay: Identification and label-free LC-MS quantitation of HLA-presented tumor-associated peptides on tissue samples
# Set-up: species or system human
# Settings: FIGS. 1A-1J; HLA-A*24 positive normal (N=75) versus tumor samples (N=263), MS signal intensities
row,Substance,over-presentation of the peptide in different cancer tissues
1,SEQ ID NO.: 386: peptide found in AR (gene looked up) (YQSRDYYNF; listed as Homo sapiens),over-presentation

# Same assay, conditions: LC-MS of HLA ligands isolated from tumor tissue samples; cancer entities on which the peptide was presented
row,Substance,Peptide Presentation on cancer entities
1,464 (VGGNVTSSF; listed as Homo sapiens) [compound 464],"BRCA, GBC, GC, HNSCC, NSCLCadeno, NSCLCsquam, OC"

# Same assay, conditions: cancer entities on whose tumor tissue samples the HLA-presented peptide was found (LC-MS); abbreviations in the footnotes of Table 8a
row,Substance,Peptide Presentation on cancer entities
1,72 (RWLDGSPVTL; listed as Homo sapiens) [compound 72],NHL
2,292 (KMFPKDFRF; listed as Homo sapiens) [compound 292],CRC
3,21 (LYMRFVNTHF; listed as Homo sapiens) [compound 21],AML
4,362 (NYMDTDNLMF; listed as Homo sapiens) [compound 362],"CCC, GBC, GC, HCC, OC, OSCAR, SCLC"
5,24 (KMLPEASLLI; listed as Homo sapiens) [compound 24],NHL
6,329 (YLGKNWSF; listed as Homo sapiens) [compound 329],"AML, CCC"
7,298 (TYETVMTFF; listed as Homo sapiens) [compound 298],"GBC, GC, HCC, NHL, UBC"
8,330 (DYIQMIPEL; listed as Homo sapiens) [compound 330],"BRCA, GBC, GC, SCLC"
9,237 (RQGLTVLTW; listed as Homo sapiens) [compound 237],NSCLCadeno
10,117 (RSMEHPGKLLF; listed as Homo sapiens) [compound 117],"NSCLCadeno, UEC"
11,170 (IFIPATILL; listed as Homo sapiens) [compound 170],HCC
12,45 (YGQSKPWTF; listed as Homo sapiens) [compound 45],"HCC, HNSCC, NSCLCadeno, NSCLCsquam, OSCAR, RCC"
13,338 (VYLTWLPGL; listed as Homo sapiens) [compound 338],"CLL, NHL"
14,141 (QYAAAITNGL; listed as Homo sapiens) [compound 141],NSCLCsquam
15,101 (VYAVSSDRF; listed as Homo sapiens) [compound 101],GBM
16,107 (FFFKAGFVWR; listed as Homo sapiens) [compound 107],"NSCLCsquam, UEC"
17,321 (VYTVGHNLI; listed as Homo sapiens) [compound 321],HCC
18,267 (QHMLPFWTDL; listed as Homo sapiens) [compound 267],OSCAR
19,291 (YTRLVLQF; listed as Homo sapiens) [compound 291],"AML, BRCA, CCC, CLL, CRC, GBC, GBM, GC, HCC, HNSCC, MEL, NHL, NSCLCadeno, NSCLCother, NSCLCsquam, OC, OSCAR, PACA, PRCA, RCC, SCLC, UBC, UEC"
20,75 (VYEHNHVSL; listed as Homo sapiens) [compound 75],UBC
21,361 (KQPANFIVL; listed as Homo sapiens) [compound 361],GBC
22,9 (TYINSLAIL; listed as Homo sapiens) [compound 9],"NSCLCadeno, PRCA, RCC, UBC"
23,287 (LVQPQAVLF; listed as Homo sapiens) [compound 287],"GBM, GC, NSCLCadeno, SCLC, UEC"
24,34 (LIFALALAAF; listed as Homo sapiens) [compound 34],UEC
25,73 (YFCSTKGQLF; listed as Homo sapiens) [compound 73],"CLL, NHL"
26,230 (RWLSKPSLL; listed as Homo sapiens) [compound 230],NHL
27,108 (WFFQGAQYW; listed as Homo sapiens) [compound 108],HCC
28,25 (MLPEASLLI; listed as Homo sapiens) [compound 25],NHL
